# PubChem BioAssay AID1224830 – NIAID | 2016
# Screen: 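Regulators of TLR4 signalling towards TNF-alpha in macrophage-like cells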 (primary screen)
# Cell system: human THP-1 monocytic leukaemia cells, TNF dual-luciferase reporter clone, PMA-differentiated to macrophage-like cells
# Reagent: siRNA pool against human genes, 50 nM
# Time to read-out: LPS for 4 h, given about 3 days after siRNA transfection
# Conditions: bacterial LPS (TLR4 ligand), 10 ng/ml
# Measured: 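Ratio of firefly to renilla light, scaled to the plate median and expressed as a robust z-score per replicate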
# Direction: TNF reporter robust z-score: higher = stronger TNF reporter response to LPS
# Rule for the call: 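a well is active when its z-score exceeds 2.8 or falls below -1.5; control wells carry no call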
# The whole screen tested about 18,000 reagents; shown is a part drawn at random. Over the whole deposit, about 2,900 (16%) were called active. 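Calls are made per well; low scores hint the gene aids the LPS response, high scores that it dampens it.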 Repeated entries: four replicate wells of each siRNA pool. No sequences are given here.
target,TNF reporter robust z-score,call
WDR47 (WD repeat domain 47),1.42,inactive
WDR47 (WD repeat domain 47),2.1,inactive
WDR47 (WD repeat domain 47),1.91,inactive
WDR47 (WD repeat domain 47),1.72,inactive
SBNO1 (strawberry notch homolog 1),0.49,inactive
SBNO1 (strawberry notch homolog 1),-1.17,inactive
SBNO1 (strawberry notch homolog 1),-0.92,inactive
SBNO1 (strawberry notch homolog 1),-0.59,inactive
SUGCT (succinyl-CoA:glutarate-CoA transferase),0.77,inactive
SUGCT (succinyl-CoA:glutarate-CoA transferase),-0.15,inactive
SUGCT (succinyl-CoA:glutarate-CoA transferase),2.52,inactive
SUGCT (succinyl-CoA:glutarate-CoA transferase),0.26,inactive
"FGD6 (FYVE, RhoGEF and PH domain containing 6)",0.22,inactive
"FGD6 (FYVE, RhoGEF and PH domain containing 6)",-0.43,inactive
"FGD6 (FYVE, RhoGEF and PH domain containing 6)",0.62,inactive
"FGD6 (FYVE, RhoGEF and PH domain containing 6)",1.31,inactive
UTP23 (UTP23 small subunit processome component),-0.6,inactive
UTP23 (UTP23 small subunit processome component),-1.01,inactive
UTP23 (UTP23 small subunit processome component),-1.16,inactive
TMPRSS11D (transmembrane serine protease 11D),-1.71,active
TMPRSS11D (transmembrane serine protease 11D),-1.26,inactive
TMPRSS11D (transmembrane serine protease 11D),-1.74,active
TMPRSS11D (transmembrane serine protease 11D),-0.71,inactive
NCBP1 (nuclear cap binding protein subunit 1),3,active
NCBP1 (nuclear cap binding protein subunit 1),0.77,inactive
NCBP1 (nuclear cap binding protein subunit 1),0.05,inactive
NCBP1 (nuclear cap binding protein subunit 1),1.21,inactive
FOXA2 (forkhead box A2),0.07,inactive
FOXA2 (forkhead box A2),-0.14,inactive
FOXA2 (forkhead box A2),-0.78,inactive
FOXA2 (forkhead box A2),1.14,inactive
TREM2 (triggering receptor expressed on myeloid cells 2),-0.64,inactive
TREM2 (triggering receptor expressed on myeloid cells 2),0.07,inactive
TREM2 (triggering receptor expressed on myeloid cells 2),-0.31,inactive
TREM2 (triggering receptor expressed on myeloid cells 2),1.12,inactive
AP1G1 (adaptor related protein complex 1 subunit gamma 1),-0.03,inactive
AP1G1 (adaptor related protein complex 1 subunit gamma 1),1.25,inactive
AP1G1 (adaptor related protein complex 1 subunit gamma 1),-0.81,inactive
AP1G1 (adaptor related protein complex 1 subunit gamma 1),-0.12,inactive
TKTL2 (transketolase like 2),-1.08,inactive
TKTL2 (transketolase like 2),-0.65,inactive
TKTL2 (transketolase like 2),-1.47,inactive
TKTL2 (transketolase like 2),-0.9,inactive
CSTB (cystatin B),-0.48,inactive
CSTB (cystatin B),-0.89,inactive
CSTB (cystatin B),-0.16,inactive
CSTB (cystatin B),0.54,inactive
DMKN (dermokine),-0.87,inactive
DMKN (dermokine),0.05,inactive
DMKN (dermokine),0.01,inactive
DMKN (dermokine),0.68,inactive
GSTA2 (glutathione S-transferase alpha 2),0.49,inactive
GSTA2 (glutathione S-transferase alpha 2),0.31,inactive
GSTA2 (glutathione S-transferase alpha 2),0.2,inactive
GSTA2 (glutathione S-transferase alpha 2),0.93,inactive
NENF (neudesin neurotrophic factor),0.33,inactive
NENF (neudesin neurotrophic factor),1.44,inactive
NENF (neudesin neurotrophic factor),-0.02,inactive
NENF (neudesin neurotrophic factor),2.3,inactive
EDA2R (ectodysplasin A2 receptor),0.09,inactive
EDA2R (ectodysplasin A2 receptor),0.86,inactive
EDA2R (ectodysplasin A2 receptor),0.45,inactive
EDA2R (ectodysplasin A2 receptor),1.73,inactive
UBE4B (ubiquitination factor E4B),-0.97,inactive
UBE4B (ubiquitination factor E4B),0.52,inactive
UBE4B (ubiquitination factor E4B),0.3,inactive
UBE4B (ubiquitination factor E4B),0.46,inactive
HERPUD2 (HERPUD family member 2),-0.19,inactive
HERPUD2 (HERPUD family member 2),0.97,inactive
HERPUD2 (HERPUD family member 2),1.37,inactive
HERPUD2 (HERPUD family member 2),1,inactive
LRRN4 (leucine rich repeat neuronal 4),0.2,inactive
LRRN4 (leucine rich repeat neuronal 4),0.74,inactive
LRRN4 (leucine rich repeat neuronal 4),0.36,inactive
LRRN4 (leucine rich repeat neuronal 4),-0.63,inactive

In a second layout: 12 of the entries above
DMKN (dermokine)
- TNF reporter robust z-score: 0.05
- call: inactive

DMKN (dermokine)
- TNF reporter robust z-score: 0.01
- call: inactive

DMKN (dermokine)
- TNF reporter robust z-score: 0.68
- call: inactive

GSTA2 (glutathione S-transferase alpha 2)
- TNF reporter robust z-score: 0.49
- call: inactive

GSTA2 (glutathione S-transferase alpha 2)
- TNF reporter robust z-score: 0.31
- call: inactive

GSTA2 (glutathione S-transferase alpha 2)
- TNF reporter robust z-score: 0.2
- call: inactive

GSTA2 (glutathione S-transferase alpha 2)
- TNF reporter robust z-score: 0.93
- call: inactive

NENF (neudesin neurotrophic factor)
- TNF reporter robust z-score: 0.33
- call: inactive

NENF (neudesin neurotrophic factor)
- TNF reporter robust z-score: 1.44
- call: inactive

NENF (neudesin neurotrophic factor)
- TNF reporter robust z-score: -0.02
- call: inactive

NENF (neudesin neurotrophic factor)
- TNF reporter robust z-score: 2.3
- call: inactive

EDA2R (ectodysplasin A2 receptor)
- TNF reporter robust z-score: 0.09
- call: inactive
